For this experiment, the target named is methyl-CpG-binding protein 2 (MeCP2) (human) (UniProt P51608). Briefly: co-IP; HeLa cells, 48 h after transfection; lysis buffer 50 mM Tris-HCl pH 7.5, 150 mM NaCl, 10% glycerol, 0.5% NP-40; anti-FLAG M2 magnetic beads or anti-c-Myc affinity agarose, 4 °C, 4 h; western blot.

Protein sequences, listed by entry. Tags and fused reporters are not part of them.
UniProt P51608: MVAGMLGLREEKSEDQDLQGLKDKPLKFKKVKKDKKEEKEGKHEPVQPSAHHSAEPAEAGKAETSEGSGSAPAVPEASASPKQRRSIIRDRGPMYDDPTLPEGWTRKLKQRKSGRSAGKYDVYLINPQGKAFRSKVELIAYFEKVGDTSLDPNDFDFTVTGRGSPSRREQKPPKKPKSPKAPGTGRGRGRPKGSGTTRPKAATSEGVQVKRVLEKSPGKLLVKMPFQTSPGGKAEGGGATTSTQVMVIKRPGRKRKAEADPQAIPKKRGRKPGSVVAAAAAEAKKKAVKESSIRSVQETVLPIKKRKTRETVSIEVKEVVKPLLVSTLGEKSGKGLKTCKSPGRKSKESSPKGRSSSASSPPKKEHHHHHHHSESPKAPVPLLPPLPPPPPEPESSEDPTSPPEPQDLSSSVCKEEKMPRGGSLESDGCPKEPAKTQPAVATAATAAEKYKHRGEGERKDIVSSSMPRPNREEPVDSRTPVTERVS

These are yes or no findings as the source states them, for the method shown. Binding seen in cells or lysates may run through a third protein. Some entries that bind do so weakly or less than the wild type.

B1: DCAF13 (protein, UniProt Q9NV06 1-445)
chain: MKVKMLSRNPDNYVRETKLDLQRVPRNYDPALHPFEVPREYIRALNATKLERVFAKPFLASLDGHRDGVNCLAKHPEKLATVLSGACDGEVRIWNLTQRNCIRTIQAHEGFVRGICTRFCGTSFFTVGDDKTVKQWKMDGPGYGDEEEPLHTILGKTVYTGIDHHWKEAVFATCGQQVDIWDEQRTNPICSMTWGFDSISSVKFNPIETFLLGSCASDRNIVLYDMRQATPLKKVILDMRTNTICWNPMEAFIFTAANEDYNLYTFDMRALDTPVMVHMDHVSAVLDVDYSPTGKEFVSASFDKSIRIFPVDKSRSREVYHTKRMQHVICVKWTSDSKYIMCGSDEMNIRLWKANASEKLGVLTSREKAAKDYNQKLKEKFQHYPHIKRIARHRHLPKSIYSQIQEQRIMKEARRRKEVNRIKHSKPGSVPLVSEKKKHVVAVVK
As for B1, the binding entry is on record as “binds”.

(Values after PMC10997554.)
